Consider 42 molecules from PubChem BioAssay AID493014 (National Center for Advancing Translational Sciences (NCATS), 2011).

Some of the results follow. These are further read-outs of the screen, such as a control signal, another cell line or another target. No call is given for them. Most of these compounds were active or inconclusive in the main read-out, so they are no random draw. Words in brackets tell the shape of the fitted curve; partial curves, single points and poor fits give uncertain potencies.

The assay is described as follows: qHTS Assay to Find Inhibitors of Chronic Active B-Cell Receptor Signaling. The settings on record: ABC-DLBCL IkBa-CBG/CBR reporter, luminescence ratio (green luciferase fused to IkBa over red control in TMD8 lymphoma cells), 4 h. Summed up: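 Concentration-response series (up to 46 uM) were applied to TMD8 dual-reporter cells for 4 h at 37C with doxycycline. Green/red ratio, after filter-overlap correction, defined %Activity; red signal alone was normalised to basal cells and zero luminescence.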

The mark [1] stands for this setting: measured here: CBR red luminescence, cell number.
The mark [2] stands for this setting: measured here: IkBa-CBG green luminescence.

Regarding `Cc1ccc(C)c(N(CC(=O)NC2CCCC2)C(=O)c2cc3cc4cccc(C)c4nc3s2)c1`, the AC50 under setting [1] is 28.2 µM [rising, partial curve, poor fit].

Turning to `O=C(CCC1CCCCC1)NCCN1C2=NC[C@@H](Cc3ccccc3)N2C[C@H]1Cc1ccc(O)cc1`, under setting [1], the AC50 is 35.5 µM [falling, single point].

Take `Cc1ccc(/C=N/Nc2nncn2N)cc1`: the AC50 under setting [1] was 35.5 µM [falling, single point].

Consider `Cc1ccc(C(=O)N2CCCC(c3ccccc3)=N2)cc1`, for which the AC50 under setting [1] is 0.631 µM [falling, full curve, poor fit].

In the case of `O=[N+]([O-])C(=C1Nc2ccccc2N1)C(Cl)=C(Cl)Cl`, the AC50 under setting [1] is 3.55 µM [falling, partial curve, poor fit].

Consider `CCCCNC(=S)NCc1ccc2c(c1)cc(C)n2C`, for which, under setting [1], the concentration at half-maximal activity (AC50) was 29.1 µM [rising, single point].

`Cn1c(=O)n(CC(N)=O)c2ccccc21`: the AC50 under setting [1] was 6.51 µM [falling, single point].

For the molecule `CCN(CC)CCn1c(NC(=O)c2ccc(Cl)cc2)nc2ccccc21`, under setting [1], the AC50 was 18.4 µM [falling, single point].

As for `Cn1c(SCC(=O)N/N=C/C=C/c2ccco2)nc2ccccc21`, the AC50 under setting [2] is 20.6 µM [falling, single point].

With `CN(C)C(=O)c1ccc(-c2cc3onc(-c4ccccc4)c3c(=O)n2C)cc1`, under setting [1], the AC50 is 29.1 µM [falling, single point].

For `COc1cccc(NC(=O)n2ncc3c(C)cccc32)c1`, the AC50 under setting [1] is 8.91 µM [falling, partial curve].

For `CC1(C)CC(=O)C2=C(C1)OC(N)=C(C#N)C21CCN(C(=O)OCc2ccccc2)CC1`, the AC50 under setting [1] was 0.517 µM [rising, full curve, poor fit].

Take `Cc1ccccc1NC(=O)NCCCCc1ccccc1`: the concentration at half-maximal activity (AC50) under setting [1] was 10 µM [falling, partial curve].

As for `O=C(NCC1CCCO1)c1coc2nc3ccccc3nc12` (centres undefined), the AC50 under setting [1] is 25.1 µM [falling, single point].

For the molecule `COc1ccc(C)cc1NC(=O)C(=O)c1cn(CC(=O)N2CCCC2)c2ccccc12`, under setting [1], the AC50 was 3.16 µM [falling, full curve].

Regarding `CCn1c(O)c(N=NC(=S)NCC2CCCO2)c2ccccc21` (centres undefined), the AC50 is 17.8 µM [rising, single point] under setting [1] and 3.55 µM [falling, partial curve, poor fit] under setting [2].

Consider `O=C(Nc1ccon1)c1cccc(Cl)c1`, for which the AC50 under setting [1] was 6.51 µM [falling, single point].

Consider `COc1ccc(/C(C#N)=C/c2cccnc2)cc1`, for which the AC50 under setting [1] was 3.16 µM [rising, full curve, poor fit].

As for `COc1ccc(NC(=O)CN(C)C(=O)c2cccc3ccccc23)cc1`, under setting [1], the AC50 was 13 µM [rising, partial curve, poor fit].

Turning to `O=C(Nc1nc2ccc3ccccc3c2s1)c1ccc(N2CCCCC2)c([N+](=O)[O-])c1`, under setting [1], the AC50 is 8.2 µM [falling, partial curve].

`CCOC(=O)c1cccc(NC(=O)c2ccco2)c1`: under setting [1], the half-maximal activity concentration (AC50) is 6.51 µM [falling, partial curve, poor fit].

Turning to `Cc1ccc(NS(=O)(=O)c2ccccc2F)cc1S(=O)(=O)N1CCCCCC1`, the concentration at half-maximal activity (AC50) under setting [1] was 13 µM [falling, partial curve, poor fit].

Regarding `CCCC(=O)C1=C(c2ccccc2)C(C#N)(C#N)C(C#N)=C1N`, the AC50 under setting [1] is 17.8 µM [falling, single point].

`Cn1cccc1-c1nc2ccc(NC(=O)c3cccs3)cc2[nH]1`: under setting [1], the AC50 is 5.17 µM [falling, full curve, poor fit].

As for `COc1cc2c(cc1NC(=O)CN(C)Cc1ccc(OC)c(OC)c1)oc1ccccc12`, under setting [1], the AC50 was 1.03 µM [falling, full curve].

Turning to `CC(=O)c1ccc(OC(=O)c2nc(-c3ccccc3)oc2C)cc1`, the AC50 under setting [1] was 5.62 µM [rising, single point].

In the case of `CN(C)CC(O)COc1ccc(C(C)(C)c2ccc(OCC(O)CN(C)C)cc2)cc1` (centres undefined), under setting [1], the AC50 is 20 µM [falling, partial curve, poor fit].

As to `CCOc1ccc(Nc2oc(-c3ccco3)nc2C#N)cc1`, the AC50 under setting [1] was 6.31 µM [rising, single point].

Consider `O=C(O)c1cc(-c2ccc(Cl)cc2)n(-c2cccc(Cl)c2)n1`, for which the AC50 under setting [1] was 10 µM [falling, partial curve, poor fit].

Regarding `Cc1cccnc1NC(=O)c1c(O)c2ccccc2n(C)c1=O`, under setting [1], the AC50 was 18.4 µM [falling, single point].

On to `CC1CC(C)(C)OC(C[N+]2(C)CCCCC2)O1` (centres undefined), for which the AC50 under setting [1] is 35.5 µM [rising, single point].

Take `Cc1cc(NC(=O)c2ccco2)c(=O)n(Cc2cccc(C(F)(F)F)c2)c1`: under setting [1], the concentration at half-maximal activity (AC50) was 2.82 µM [falling, partial curve, poor fit].

In the case of `Cc1cccc(NC(=S)Nc2ccccn2)c1C`, under setting [1], the AC50 was 0.461 µM [rising, full curve, poor fit].

With `CNC(=S)N/N=C/c1c(C)cccc1Cl`, under setting [2], the AC50 is 35.5 µM [falling, single point].

Turning to `CNc1ccc(/C=C(\C#N)c2ccccn2)cc1[N+](=O)[O-]`, the AC50 under setting [1] is 12.6 µM [rising, partial curve, poor fit].

`C=CC[C@@H](CC(=O)N(CCO)Cc1ccccc1)C(=O)NC[C@@H](OC(=O)[C@@H](CC=C)Cc1ccc(F)cc1)c1ccccc1`: the AC50 under setting [1] was 23.1 µM [falling, partial curve].

For `CCOC(=O)NNC(=O)C12CC3CC(CC(C3)C1)C2`, the AC50 under setting [1] is 25.1 µM [falling, single point].

Consider `Fc1ccc(Cn2nnnc2CN2CCN(C3CCCC3)CC2)cc1`, for which the AC50 under setting [1] was 6.51 µM [rising, single point].

As for `NNC(=O)CNC(=O)C12CC3CC(CC(C3)C1)C2`, under setting [1], the AC50 was 0.631 µM [rising, full curve, poor fit].

For `N#Cc1nc(-c2ccc(Cl)cc2)oc1NCc1ccco1`, the AC50 under setting [1] was 0.326 µM [rising, full curve, poor fit].

For the molecule `Nc1nc2ccccc2n1C(=O)c1ccco1`, the AC50 is 5.8 µM [falling, partial curve] under setting [1] and 4.11 µM [rising, partial curve, poor fit] under setting [2].

Regarding `CCCCCCOC(=O)NCC(O)c1ccccc1` (centres undefined), the AC50 under setting [1] is 12.6 µM [falling, partial curve, poor fit].

The AC50 is the concentration giving half of the maximal activity seen.
